The nature of the series: Body weight, food intake and organ weights of aged mice fed 3% D-ribo-2-hexulose diet for 12 weeks. The format is in vivo, C57BL/6J male mice. As for the experimental part: Twenty-one 48-week-old C57BL/6J male mice and seven 8-week-old C57BL/6J male mice were purchased from JA BIO Inc. (Korea). The purchased animals were raised in a breeding room with a controlled temperature (20 to 23° C.) and a light/dark cycle (a 12-hour cycle), and were provided with pelletized commercial non-purified feed for the first week.
Specifically, a negative control group (NC, n=7, American Institute of Nutrition AIN-93G Semisynthetic diet); a D-ribo-2-hexulose-treated group (D-ribo-2-hexulose; DRH, n=7; a portion of cellulose in AIN-93G was replaced with 3% D-ribo-2-hexulose). […] The dose of D-ribo-2-hexulose was set at 3% based on previous animal studies. In the previous studies, the dose of D-ribo-2-hexulose was determined to be 3% in order to investigate a biological effect at a lower dose than the dose. During the experiment, the mice had free access to distilled water, and the food intakes and body weights of the mice were measured weekly, and blood glucose was measured once every 4 weeks. All animal experiments were approved by the Animal Research Ethics Committee of KyungPook National University (Approval Number: KNU-2020-109).

[1] abbreviates: DRH group, aged mice, AIN-93G + 3% DRH 12 weeks, Mean ± SD.

The text below walks through data of patent US12582614B2, “Composition for preventing, alleviating or treating sarcopenia, containing D-ribo-2-hexulose as active ingredient” (KYUNGPOOK NATIONAL UNIVERSITY INDUSTRY-ACADEMIC COOPERATION …, priority 2021, dated 2026).

Structures are written as SMILES.

In the case of `O=C(CO)[C@H](O)[C@H](O)[C@H](O)CO` [DRH, D-ribo-2-hexulose], under “DRH group vs NC group”, the “food efficiency ratio (FER)” value is reported as “significantly decreased” and the food intake entry is on record as “not significantly different”. For the same compound, under setting [1], the Energy intake is listed as 13.23 ± 0.30 ^ g/day and the food intake is on record as 3.46 ± 0.08 ^ g/day.
